In patent publication US6664096B2 (priority 2000, dated 2003):

Assay: peptide made by a vendor
Details: whole synthesis

**Q.** For H-DPVDAVINTTCNYGQVVAALNATD-OH, which outcome is on record?
**A.** Synthesis of P1 peptide was unsuccessful due to extreme hydrophobicity
